The other results are listed elsewhere or left out.
What was measured:
Experiment in all cases: log2 fold change, soluble protein after heating vs DMSO (PISA); higher = thermal stabilisation; K562 cells, 10 uM, 30 min; active = over 0.2 and 3.5 SD of the protein, either way, in both replicates (recomputed)
[1] = compound: CC1=C(C=C(C=C1)NC(=O)C2=CC(=CC=C2)C(C)(C)C#N)NC3=CC4=C(C=C3)N=CN(C4=O)C
Summary of the method: (§1)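 K562 cells at 2×10^6 cells/mL were treated for 30 min with 10 μM compound, and aliquots were heated for 3 min over 48°C-58°C before pooling. Extraction used PBS with 0.5% NP-40 at 4°C, and soluble protein was the supernatant after 21,000xg for 90 min, measured by TMTpro 16plex LC-MS/MS with channel sums equalised. Thermal stability values, relative to control samples and from duplicates, are log2 fold changes.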

Sequences of proteins named here, by UniProt entry; tags and fusion partners are left off. A change or cut given only in a name is not applied to a line headed by its entry.
UniProt Q9Y3I0: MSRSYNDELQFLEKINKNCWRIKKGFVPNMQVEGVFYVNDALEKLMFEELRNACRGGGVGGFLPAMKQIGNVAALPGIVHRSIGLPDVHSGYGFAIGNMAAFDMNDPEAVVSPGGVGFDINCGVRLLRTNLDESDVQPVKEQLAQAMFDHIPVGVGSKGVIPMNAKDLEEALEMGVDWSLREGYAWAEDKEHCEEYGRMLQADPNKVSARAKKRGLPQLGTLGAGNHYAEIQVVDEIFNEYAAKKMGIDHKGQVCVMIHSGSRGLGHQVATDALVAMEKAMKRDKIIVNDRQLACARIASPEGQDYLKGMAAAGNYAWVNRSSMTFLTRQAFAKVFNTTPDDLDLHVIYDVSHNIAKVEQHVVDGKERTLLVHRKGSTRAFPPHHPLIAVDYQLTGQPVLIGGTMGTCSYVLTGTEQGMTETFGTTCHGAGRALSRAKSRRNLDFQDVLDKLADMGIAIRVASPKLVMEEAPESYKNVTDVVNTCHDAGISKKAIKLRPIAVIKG
UniProt Q15050: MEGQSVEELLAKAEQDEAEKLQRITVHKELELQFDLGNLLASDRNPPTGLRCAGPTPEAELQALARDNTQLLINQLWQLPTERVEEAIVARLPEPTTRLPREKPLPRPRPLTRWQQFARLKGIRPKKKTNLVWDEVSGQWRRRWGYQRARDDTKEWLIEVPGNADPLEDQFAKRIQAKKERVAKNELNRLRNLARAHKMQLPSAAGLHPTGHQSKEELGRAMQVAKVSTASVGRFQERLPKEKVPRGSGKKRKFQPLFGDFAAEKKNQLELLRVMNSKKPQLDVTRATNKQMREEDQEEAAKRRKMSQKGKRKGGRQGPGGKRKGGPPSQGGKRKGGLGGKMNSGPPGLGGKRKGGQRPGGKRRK
UniProt O43290: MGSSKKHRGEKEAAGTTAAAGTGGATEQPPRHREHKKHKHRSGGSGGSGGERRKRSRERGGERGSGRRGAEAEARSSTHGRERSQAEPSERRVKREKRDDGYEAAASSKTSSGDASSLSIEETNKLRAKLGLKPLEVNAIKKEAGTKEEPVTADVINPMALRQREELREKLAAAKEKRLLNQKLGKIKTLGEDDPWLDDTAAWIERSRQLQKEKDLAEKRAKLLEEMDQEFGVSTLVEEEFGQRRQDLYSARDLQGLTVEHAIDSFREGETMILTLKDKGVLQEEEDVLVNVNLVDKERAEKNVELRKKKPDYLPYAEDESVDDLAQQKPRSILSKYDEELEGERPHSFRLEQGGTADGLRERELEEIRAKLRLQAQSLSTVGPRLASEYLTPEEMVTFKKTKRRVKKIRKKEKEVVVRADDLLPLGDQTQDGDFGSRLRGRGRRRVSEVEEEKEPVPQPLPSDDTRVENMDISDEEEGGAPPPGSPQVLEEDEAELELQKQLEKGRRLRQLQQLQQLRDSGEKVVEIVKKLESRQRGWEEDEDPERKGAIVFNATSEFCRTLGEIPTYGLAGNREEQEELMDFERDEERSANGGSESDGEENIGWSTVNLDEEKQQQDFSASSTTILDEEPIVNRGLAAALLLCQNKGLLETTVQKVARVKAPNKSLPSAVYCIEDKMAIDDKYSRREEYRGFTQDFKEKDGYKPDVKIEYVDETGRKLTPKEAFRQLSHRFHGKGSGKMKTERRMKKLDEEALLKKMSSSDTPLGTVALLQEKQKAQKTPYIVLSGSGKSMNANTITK
UniProt Q9NX18: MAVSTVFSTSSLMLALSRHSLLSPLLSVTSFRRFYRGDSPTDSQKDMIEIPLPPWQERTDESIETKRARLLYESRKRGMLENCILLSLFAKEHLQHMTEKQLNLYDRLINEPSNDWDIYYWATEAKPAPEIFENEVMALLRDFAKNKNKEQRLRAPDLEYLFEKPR
UniProt Q9Y6B6: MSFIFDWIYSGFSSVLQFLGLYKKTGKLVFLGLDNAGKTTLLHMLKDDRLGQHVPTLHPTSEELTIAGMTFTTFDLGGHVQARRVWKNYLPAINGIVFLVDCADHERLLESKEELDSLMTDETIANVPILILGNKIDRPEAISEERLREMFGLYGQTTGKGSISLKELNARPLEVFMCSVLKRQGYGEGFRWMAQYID
UniProt O95197: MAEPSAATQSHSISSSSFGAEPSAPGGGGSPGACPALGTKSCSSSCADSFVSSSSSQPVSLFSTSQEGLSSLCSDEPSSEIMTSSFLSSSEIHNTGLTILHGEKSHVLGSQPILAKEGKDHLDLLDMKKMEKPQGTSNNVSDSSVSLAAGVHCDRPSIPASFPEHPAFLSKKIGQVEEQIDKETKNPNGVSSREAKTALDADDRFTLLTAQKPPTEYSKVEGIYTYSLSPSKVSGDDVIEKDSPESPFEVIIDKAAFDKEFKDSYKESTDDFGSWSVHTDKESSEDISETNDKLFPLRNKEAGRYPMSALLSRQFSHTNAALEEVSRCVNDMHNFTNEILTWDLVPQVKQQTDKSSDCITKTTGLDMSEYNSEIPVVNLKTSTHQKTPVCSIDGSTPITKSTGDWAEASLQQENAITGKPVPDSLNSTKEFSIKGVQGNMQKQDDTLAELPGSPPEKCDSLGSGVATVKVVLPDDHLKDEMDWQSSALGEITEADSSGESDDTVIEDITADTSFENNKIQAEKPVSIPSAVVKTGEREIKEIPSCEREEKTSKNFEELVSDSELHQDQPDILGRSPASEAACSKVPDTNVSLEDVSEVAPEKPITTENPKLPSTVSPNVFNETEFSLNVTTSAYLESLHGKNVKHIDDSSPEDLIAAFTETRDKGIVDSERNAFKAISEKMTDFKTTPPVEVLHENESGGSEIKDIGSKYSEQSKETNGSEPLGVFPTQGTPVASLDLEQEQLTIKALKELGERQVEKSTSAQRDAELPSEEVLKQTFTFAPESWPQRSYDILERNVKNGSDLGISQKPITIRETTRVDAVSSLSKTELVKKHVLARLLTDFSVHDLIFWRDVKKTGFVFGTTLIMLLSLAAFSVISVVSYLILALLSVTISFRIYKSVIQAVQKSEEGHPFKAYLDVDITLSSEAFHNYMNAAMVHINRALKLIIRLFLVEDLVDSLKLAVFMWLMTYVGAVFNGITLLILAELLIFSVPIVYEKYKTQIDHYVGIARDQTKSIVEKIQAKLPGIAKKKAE
UniProt Q12770: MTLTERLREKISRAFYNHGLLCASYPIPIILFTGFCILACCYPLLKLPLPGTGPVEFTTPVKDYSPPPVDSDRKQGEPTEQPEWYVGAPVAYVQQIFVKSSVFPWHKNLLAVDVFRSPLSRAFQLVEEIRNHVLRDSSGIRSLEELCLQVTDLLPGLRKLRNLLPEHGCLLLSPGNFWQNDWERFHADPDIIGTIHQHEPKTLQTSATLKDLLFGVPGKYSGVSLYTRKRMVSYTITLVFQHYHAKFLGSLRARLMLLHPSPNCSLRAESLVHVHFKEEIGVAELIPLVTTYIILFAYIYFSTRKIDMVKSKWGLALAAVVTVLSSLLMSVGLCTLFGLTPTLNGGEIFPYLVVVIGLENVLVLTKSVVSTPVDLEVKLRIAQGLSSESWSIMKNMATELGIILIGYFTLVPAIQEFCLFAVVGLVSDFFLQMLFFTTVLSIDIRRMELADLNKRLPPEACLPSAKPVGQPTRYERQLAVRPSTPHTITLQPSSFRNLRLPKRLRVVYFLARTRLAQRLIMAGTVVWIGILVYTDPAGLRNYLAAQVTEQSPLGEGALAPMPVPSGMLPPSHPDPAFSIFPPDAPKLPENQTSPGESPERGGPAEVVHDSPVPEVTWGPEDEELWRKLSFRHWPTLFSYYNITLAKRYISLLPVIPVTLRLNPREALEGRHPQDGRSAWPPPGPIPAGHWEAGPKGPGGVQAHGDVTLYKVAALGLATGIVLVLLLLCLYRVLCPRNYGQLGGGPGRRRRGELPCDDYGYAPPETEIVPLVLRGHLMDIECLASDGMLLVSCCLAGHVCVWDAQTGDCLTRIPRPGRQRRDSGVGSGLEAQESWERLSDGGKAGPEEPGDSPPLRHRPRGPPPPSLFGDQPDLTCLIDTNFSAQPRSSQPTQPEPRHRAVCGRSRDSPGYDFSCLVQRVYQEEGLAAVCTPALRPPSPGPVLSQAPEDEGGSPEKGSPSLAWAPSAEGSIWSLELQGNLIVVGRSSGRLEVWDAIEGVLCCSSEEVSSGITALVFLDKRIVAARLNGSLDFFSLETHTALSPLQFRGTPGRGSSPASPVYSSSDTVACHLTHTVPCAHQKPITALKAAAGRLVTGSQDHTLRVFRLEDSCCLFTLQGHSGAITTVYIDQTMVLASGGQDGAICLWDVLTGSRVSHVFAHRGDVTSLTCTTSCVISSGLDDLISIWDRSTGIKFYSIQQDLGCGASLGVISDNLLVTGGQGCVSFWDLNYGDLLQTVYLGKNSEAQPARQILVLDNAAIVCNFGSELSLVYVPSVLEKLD
UniProt O00767: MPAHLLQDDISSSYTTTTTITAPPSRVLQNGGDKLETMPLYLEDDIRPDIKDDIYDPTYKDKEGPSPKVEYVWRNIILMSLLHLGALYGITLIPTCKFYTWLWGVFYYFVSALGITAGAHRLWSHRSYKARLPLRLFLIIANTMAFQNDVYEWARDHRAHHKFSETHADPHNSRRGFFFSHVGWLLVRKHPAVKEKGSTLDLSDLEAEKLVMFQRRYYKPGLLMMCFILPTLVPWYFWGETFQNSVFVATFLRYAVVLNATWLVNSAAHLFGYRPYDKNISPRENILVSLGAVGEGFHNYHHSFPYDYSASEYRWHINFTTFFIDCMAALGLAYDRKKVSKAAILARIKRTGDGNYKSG
UniProt Q9HCN8: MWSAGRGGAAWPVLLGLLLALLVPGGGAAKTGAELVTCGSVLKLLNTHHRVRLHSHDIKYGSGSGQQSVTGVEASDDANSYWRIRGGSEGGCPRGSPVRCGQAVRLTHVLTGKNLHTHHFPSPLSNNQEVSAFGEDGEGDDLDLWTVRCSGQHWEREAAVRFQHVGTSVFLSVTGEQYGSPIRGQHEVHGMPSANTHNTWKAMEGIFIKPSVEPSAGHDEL
UniProt Q96IZ7: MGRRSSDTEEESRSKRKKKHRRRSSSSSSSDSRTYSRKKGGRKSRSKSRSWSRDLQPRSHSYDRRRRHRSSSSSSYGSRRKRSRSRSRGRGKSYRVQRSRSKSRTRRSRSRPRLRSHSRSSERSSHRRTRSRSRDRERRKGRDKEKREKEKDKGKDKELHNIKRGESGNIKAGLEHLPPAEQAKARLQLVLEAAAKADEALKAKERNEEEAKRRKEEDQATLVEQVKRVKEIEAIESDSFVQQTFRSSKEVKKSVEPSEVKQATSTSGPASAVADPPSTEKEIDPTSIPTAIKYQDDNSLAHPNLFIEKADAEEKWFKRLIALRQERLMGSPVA
UniProt Q15436: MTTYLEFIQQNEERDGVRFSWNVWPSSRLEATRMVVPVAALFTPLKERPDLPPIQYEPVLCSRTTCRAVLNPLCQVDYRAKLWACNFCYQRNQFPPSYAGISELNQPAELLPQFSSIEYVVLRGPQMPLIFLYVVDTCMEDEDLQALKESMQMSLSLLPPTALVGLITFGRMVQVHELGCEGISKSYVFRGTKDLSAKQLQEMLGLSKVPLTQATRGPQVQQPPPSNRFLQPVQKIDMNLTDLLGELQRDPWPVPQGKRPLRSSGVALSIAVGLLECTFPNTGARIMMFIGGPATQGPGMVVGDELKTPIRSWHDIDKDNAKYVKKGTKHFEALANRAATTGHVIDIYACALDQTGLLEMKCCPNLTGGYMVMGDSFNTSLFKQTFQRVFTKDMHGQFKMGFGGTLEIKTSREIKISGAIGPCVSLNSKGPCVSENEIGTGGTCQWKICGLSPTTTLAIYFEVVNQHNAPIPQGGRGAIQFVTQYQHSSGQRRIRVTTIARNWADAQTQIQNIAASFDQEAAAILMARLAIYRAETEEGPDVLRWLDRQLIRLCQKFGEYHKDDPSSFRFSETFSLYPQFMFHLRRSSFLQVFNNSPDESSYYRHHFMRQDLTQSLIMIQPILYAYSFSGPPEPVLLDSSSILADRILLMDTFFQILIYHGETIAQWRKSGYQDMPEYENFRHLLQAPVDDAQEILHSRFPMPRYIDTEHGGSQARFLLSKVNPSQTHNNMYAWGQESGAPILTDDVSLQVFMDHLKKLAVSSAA

[2] = compound: CC1=C(C=C(C=C1)NC(=O)C2=CC(=CC=C2)N(C)C)NC(=O)C3=CC=C(C=C3)O
Summary of the method: as §1

[3] = compound: CC1=CC=C(C=C1)SC2=C3C=C(SC3=CN=C2)C(=O)N
Summary of the method: as §1

[4] = compound: CC1=NC(=CC=C1)C2=C(N=C(N2)C(C)(C)C)C3=CC4=NC=CN=C4C=C3
Summary of the method: as §1

[5] = compound: CCCCN(Cc1ccc(C(=O)NO)cc1)C(=O)Nc1ccccc1 [Nexturastat A]
Summary of the method: as §1

[6] = compound: CCCS(=O)(=O)Nc1ccc(F)c(C(=O)c2c[nH]c3ncc(-c4ccc(Cl)cc4)cc23)c1F [vemurafenib]
Summary of the method: as §1

[7] = compound: CCCS(=O)(=O)Nc1ccc(F)c(C(=O)c2c[nH]c3ncc(Cl)cc23)c1F
Summary of the method: as §1

[8] = compound: CCCc1cc(C)[nH]c(=O)c1CNC(=O)c1cc(-c2ccnc(N3CCN(C)CC3)c2)cc2c1cnn2C(C)C
Summary of the method: as §1

[9] = compound: CCN(CC)Cc1ccc2cc(COC(=O)Nc3ccc(C(=O)NO)cc3)ccc2c1 [givinostat]
Summary of the method: as §1

[10] = compound: CCN(CCCOc1ccc2c(Nc3cc(CC(=O)Nc4cccc(F)c4)[nH]n3)ncnc2c1)CCOP(=O)(O)O [barasertib]
Summary of the method: as §1

Measured: log2 fold change

RTCB (UniProt Q9Y3I0)
inactive: [1] -0.011 | [2] 0.001 | [3] -0.015 | [4] -0.01 | [5] 0.028 | [6] -0.006 | [7] 0.013 | [8] 0.01 | [9] -0.019 | [10] -0.009

RRS1 (UniProt Q15050)
inactive: [1] 0.024 | [2] 0.021 | [3] -0.043 | [4] -0.163 | [5] 0.31 | [6] -0.174 | [7] -0.03 | [8] 0.104 | [9] 0.093 | [10] -0.101

SART1 (UniProt O43290)
inactive: [1] 0.014 | [2] -0.032 | [3] -0.011 | [4] -0.031 | [5] 0.274 | [6] -0.11 | [7] 0.019 | [8] 0.118 | [9] 0.088 | [10] -0.096

SDHAF2 (UniProt Q9NX18)
inactive: [1] -0.047 | [2] 0.026 | [3] 0.079 | [4] 0.019 | [5] 0.076 | [6] 0.028 | [7] -0.024 | [8] -0.06 | [9] 0.036 | [10] 0.005

2 entries drawn at random from those above, as already listed:
SART1 (UniProt O43290)
inactive: [1] 0.014 | [2] -0.032 | [3] -0.011 | [4] -0.031 | [5] 0.274 | [6] -0.11 | [7] 0.019 | [8] 0.118 | [9] 0.088 | [10] -0.096

RTCB (UniProt Q9Y3I0)
inactive: [1] -0.011 | [2] 0.001 | [3] -0.015 | [4] -0.01 | [5] 0.028 | [6] -0.006 | [7] 0.013 | [8] 0.01 | [9] -0.019 | [10] -0.009

Later entries.

SAR1B (UniProt Q9Y6B6)
inactive: [1] 0.078 | [2] -0.035 | [3] 0.005 | [4] 0.015 | [5] -0.045 | [6] 0.038 | [7] 0.063 | [8] -0.001 | [9] -0.018 | [10] 0.038

RTN3 isoform 5 (UniProt O95197)
inactive: [1] 0.109 | [2] -0.004 | [3] 0.227 | [4] -0.075 | [5] -0.344 | [6] 0.092 | [7] 0.189 | [8] -0.067 | [9] -0.064 | [10] 0.038

SCIN (UniProt Q9Y6U3)
inactive: [1] 0.061 | [2] -0.021 | [3] 0.059 | [4] -0.029 | [5] 0.054 | [6] -0.076 | [7] 0.094 | [8] -0.018 | [9] 0.043 | [10] 0.047

SCAP (UniProt Q12770)
inactive: [1] -0.023 | [2] 0.012 | [3] 0.041 | [4] 0.048 | [5] -0.005 | [6] 0.062 | [7] -0.056 | [8] -0.022 | [9] -0.013 | [10] -0.005

SCD (UniProt O00767)
active: [9] -0.457
inactive: [1] -0.076 | [2] 0.037 | [3] 0.038 | [4] 0.078 | [5] -0.121 | [6] 0.022 | [7] -0.053 | [8] -0.021 | [10] 0.003

SDF2L1 (UniProt Q9HCN8)
inactive: [1] 0.013 | [2] 0.022 | [3] -0.03 | [4] -0.014 | [5] 0.042 | [6] 0.006 | [7] -0.035 | [8] -0.082 | [9] 0.004 | [10] -0.01

RSRC1 (UniProt Q96IZ7)
inactive: [1] 0.041 | [2] 0.013 | [3] 0.006 | [4] 0.056 | [5] 0.02 | [6] -0.046 | [7] 0.004 | [8] -0.026 | [9] 0.019 | [10] -0.031

RTN3 (UniProt O95197)
inactive: [1] -0.026 | [2] -0.046 | [3] 0.007 | [4] 0.015 | [5] -0.021 | [6] 0.021 | [7] -0.031 | [8] -0.119 | [9] 0.023 | [10] -0.033

SEC23A (UniProt Q15436)
inactive: [1] 0.005 | [2] -0.067 | [3] -0.027 | [4] -0.041 | [5] 0.008 | [6] 0.049 | [7] 0.06 | [8] 0.003 | [9] -0.025 | [10] 0.027

— the supplement of paper PMC10849652
